# Data taken from PubChem BioAssay AID1508600 (Functional Genomics Laboratory (NCATS/FGL), 2020).
# About 3,700 (7%) of roughly 53,000 sequences were called active.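 The calls were made as follows: active = gene knockdowns whose robust z-score for IL-1 alpha signal is at least 2 or at most -2, so actives lie on both sides; inactive = the rest.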 Some of the results follow.
# Assay: Components of the Cytosolic LPS Sensing Pathway: Gene Identification via Genome-wide siRNA Screen;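 also: robust z of the log signal after scaling to non-targeting control siRNA wells of the plate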
# Conditions: RAW264.7 macrophages, IL-1a HTRF, actives lie on both sides, screened at 100 nM (by protocol), cells primed 5 h with Pam3CSK4 first
# Method in brief: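 Supernatant IL-1a by HTRF from RAW264.7 cells primed with Pam3CSK4 (5 hours) and transfected with LipidA (24 hour) after 48h siRNA knockdown at 100 nM; cell viability checked with CellTiter-Glo.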
row,Sequence,z-score
1,GGAUUUACUUCACUAAUCCTT against Vmn2r37,inactive: 0.645
2,GGAUCCUGCAUCUUAUAGUTT against Tcstv3,inactive: 0.468
3,GGAGACUGUGGAUUUAAUUTT against Sult1a1,active: 2.07
4,GCCAUUCCGGCAGUAUUACTT against Pdcd7,inactive: 0.0894
5,CGGAUGUGAGAAAAGAGUUTT against Ndufc1,inactive: -0.0739
6,CCUCAAGGGCUGAUGCAUGTT against Gpkow,inactive: -0.528
7,AGUGCUCAUUAACUGUCGCTT against Snrpd2,active: -2.75
8,GGCUGAAGAGAAUCUUUUATT against Il9r,inactive: -0.368
9,GGAUCUCUGUUUCUCAAAATT against Slc19a3,inactive: -0.146
10,CGGACUCGAUAACCAUCAGTT against Smurf1,inactive: -1.9
11,GGUGCAGCACUUCAAAGUGTT against Grap,active: 2.41
12,GCUUGUUGGUGGUCUCCUGTT against Spink7,active: -2.28
13,GGUCACUUCCUUAAUUUUATT against Disc1,inactive: -1.62
14,GGAGAAUGGUCUUAGGUUUTT against Tubb2b,inactive: 1.85
15,CGGAAUCUGACUGGUAUCGTT against Banp,inactive: -1.21
16,GGAAGAUGCCAUUUAUUGGTT against Sgpl1,inactive: -0.273
17,GGGACAAUCAACACAAAAUTT against Ythdf3,inactive: 0.172
18,GGGAACAAAAACAUAAAAGTT against Otub2,inactive: -1.17
19,GGUUUUAGAAUUCUGGACGTT against Plppr2,inactive: 0.243
20,GGAAAUUUGAGACUCUGCUTT against Nsun6,inactive: -0.477
21,UUGACUCACCUUCCGAGGUTT against Lce1a1,inactive: 0.0827
22,GGAAUGCAAACAGCACUUGTT against Rab33b,inactive: -1.58

row,Sequence,z-score
1,GGGAGAUCCGAAGUGGAUCTT against Sult2a2,inactive: -0.665
2,GGAGAGAUGCCUUUUAAGUTT against Zfp954,inactive: -0.252
3,CCUCUCCUACACUUCAAAATT against Unc45b,inactive: 0.221
4,GGGAAUGUGACCAUCAAGCTT against Arl8a,inactive: 0.931
5,GGAAGAGGAUGACAAGACATT against Yipf2,inactive: 0.605
6,CGCGUCAUUAUCAAGUGCCTT against Dnpep,inactive: 1.64
7,CGAGAUAUUCGUGGACUAUTT against Snrnp35,inactive: -1.65
8,GCUUUGACAACCUCUACUCTT against Armh3,inactive: 0.369
9,GCUGUUACCAGGUUUAAGUTT against Hinfp,inactive: 0.00861
10,GGGACAAAUGGAUCAAGAUTT against Ganab,inactive: 0.11
11,GGACCUCAGCUUACCUAGCTT against Stra6l,inactive: 0.669
12,GCUGACCAAAGUCACUCCCTT against Aqp1,inactive: 0.13
13,GGAGCUAACUGUCAAUGGATT against Usp17la,active: 2.8
14,GCUGGAGGACUCAUGUUCATT against Dimt1,inactive: -0.0153
15,GGAUUAUGAGAUGAAAUCUTT against Serpinb9b,inactive: 0.791
16,CCUCACACUUCACUACUGATT against Rpain,inactive: -0.221
17,GCGCAAAAGGACCUAUGAGTT against Rela,inactive: -0.342
18,GGAACCACACAUUUAAAAUTT against Ctsh,inactive: 0.0631
19,GCACCUCUACUAUGAGGCUTT against Cfap57,inactive: -1.9
20,GGUUUGGGAUGUUCGAGUUTT against Slc25a1,inactive: -1.1
21,CCUUUUACUUAGACAUCCUTT against Pstpip2,inactive: -0.284
22,GCCAGAAGACUGUAUACCATT against Rp9,inactive: -0.0396

# Given with bars between the fields: part of the list above
row | Sequence | z-score
12 | GCUUGUUGGUGGUCUCCUGTT against Spink7 | active: -2.28
13 | GGUCACUUCCUUAAUUUUATT against Disc1 | inactive: -1.62

# More records

row,Sequence,z-score
1,GGCACAAGGCCUUUAGCACTT against Olfr583,inactive: -0.0445
2,CCAGGUGCUAUGAGAUUAGTT against Setd4,inactive: 1
3,GGCAGAUGCGUAUCUCAAUTT against Gpr39,inactive: 0.7
4,GGUUAGAGGAAAGGUUUAUTT against Htr1f,active: 5.07
5,GCAUGCUAGAUGUGGUCUGTT against Ccdc117,inactive: 0.0779
6,GCAACAAUAUUGCUCUAGATT against Galntl6,inactive: -0.452
7,GGAUCAUUAAACAACCUGATT against Nrcam,inactive: -0.186
8,GCUACAAACCGUUUAAUAATT against Knstrn,inactive: 0.223
9,GCCUUGUCAUAUGGGUUCCTT against Timm17b,inactive: -0.915
10,GGUUGCUGGAUGUCAUCUCTT against Hpn,active: -2.05
11,GGUUUUGGGAAGUUAUUAATT against Lsg1,inactive: 1.56
12,CGAUGUACUCCAUGUUGGGTT against Bpifb6,active: 3.47
13,GGGACUUCAUUUUAUUCUGTT against Morc4,inactive: 0.0714
14,GGGAUUCCCAAGGAUGAAGTT against Ghrh,inactive: -1.66
15,CGGCUCUUUCUUGUGGAUATT against Ggta1,inactive: 0.384
16,CCUCUUCAACAAACAAGCATT against Zscan22,inactive: -0.379
17,GGAAAAUGCCAUUCAUUUUTT against Fam71e2,inactive: 0.948
18,GGAAGAAGUUCAAGAUUGATT against Bap1,inactive: -1.17
19,GGAGGUAGAAAAGACAAAATT against Jrk,inactive: 1.96
20,GGGUAAUUGAAUGACUGAGTT against Ppcdc,inactive: 1.96
21,GGGAGUGCCAAAGUCGAAUTT against D16Ertd472e,inactive: -0.425
22,GCUCAGUUGGCAUCCUGUUTT against Odf2l,inactive: -0.582

# Individual results from the entries so far:
# z-score, UUGACUCACCUUCCGAGGUTT against Lce1a1 is entered as inactive: 0.0827
# z-score, GGCUGAAGAGAAUCUUUUATT against Il9r is entered as inactive: -0.368
# z-score, GGGAAUGUGACCAUCAAGCTT against Arl8a is entered as inactive: 0.931
# z-score, GGUGCAGCACUUCAAAGUGTT against Grap is entered as active: 2.41
# z-score, GGACCUCAGCUUACCUAGCTT against Stra6l is entered as inactive: 0.669
# z-score, GGUUAGAGGAAAGGUUUAUTT against Htr1f is entered as active: 5.07

# (listing goes on)

row,Sequence,z-score
1,GGUGGAGCUGCUAUCACAUTT against Suco,inactive: 0.751
2,GGACAUGGGUGAUAAAGUUTT against Acad12,inactive: -1.59
3,GGCUCUUGUUGCCUUGUGUTT against Crabp1,inactive: -1.89
4,GGCGAACACUAAAAAGGCATT against Zbtb10,inactive: -1.6
5,CGUUAAUUGCCCUCAAAGATT against Spon1,inactive: 1.03
6,GGUCCUAACCGACAUGUCUTT against Vrk1,inactive: 0.305
7,CCUAUACGUGCACCAAUGGTT against Srpx2,inactive: 0.862
8,GGACAUUGUUGUUCUUGGUTT against Psma7,inactive: -0.844
9,GGAUGAGUCCAAUCUUCUCTT against Anapc4,inactive: 1.44
10,CGACCUCACAGUUGACUACTT against Mthfsd,inactive: 1.08
11,GCGACUACAAGGAUACCCUTT against Krt71,inactive: 0.169
12,GGACAAUUUACAAAGAUGCTT against Rnmt,inactive: -0.486
13,CCAUGGCUUACGAGAGACATT against Mavs,inactive: -0.884
14,CGGGCACAUAAUUUACCAATT against Rfx4,inactive: 0.921
15,GCUGAUCAGAGACCAUUACTT against Cmss1,active: -2.26
16,GGAAAACCCUGAGCAAGAGTT against Olfr916,inactive: -0.105
17,GGAUAUUUUUAGUGUCUUGTT against Homer2,inactive: -1.19
18,GGUACUCCUAGAACUCUACTT against 2410002F23Rik,inactive: 1.01
19,GGAUGAAAGUUGUAUGUAUTT against Ctsk,inactive: -0.606
20,GGCCUGAACAAAGUUACAUTT against Slc22a7,inactive: 0.252
21,GCUUCUGUCAUAAUGAUAUTT against Pramel6,active: -2.33
22,GUGGACAAGACCUUCCUGUTT against Cmtm5,inactive: 0.147

row,Sequence,z-score
1,GGUGGAACCCAAUGACACCTT against Cers5,inactive: 1.21
2,CCAUGUCAAACACCUUAGUTT against Crebzf,inactive: 1.26
3,GGAAUGGAAUAGCAGAGCUTT against Ramac,inactive: -1.49
4,GGUUACCGCUAUCGUCAAGTT against Sufu,inactive: -0.364
5,GGUUUGAGCCACCUACUAUTT against Bco2,inactive: -0.62
6,ACUCCCAUGUUGAAUCCAUTT against Olfr1202,inactive: 1.33
7,GGGAUUCAUCACUGAAAAGTT against Mmel1,inactive: -0.0466
8,GGUAUUUCUACUGUGACAGTT against Olfr1055,inactive: -0.338
9,GCCUCUUCAAUCACAUUUATT against Atp6v0a4,active: 3.27
10,GGAACCUAUUUUUUCGUAUTT against Gen1,inactive: -0.322
11,GGAGACCUUACCACUUGAATT against Ephx1,inactive: -1.2
12,CGACAUUGAUAUCGUGCGCTT against Gadd45g,inactive: -0.827
13,GGGUUCUGUCACUAUAAUATT against Defb10,inactive: -0.0651
14,GACGACUUGAUUGUAAGCATT against Amt,inactive: -0.492
15,CCAACACAACUGGUAAAAUTT against Plcb4,inactive: 0.26
16,GGCCAUUGGCUGGACAAAUTT against Mppe1,inactive: -0.568
17,GGUUAACCCAAUGCCAGUGTT against Cyba,inactive: 0.65
18,CCCUCGAGUGACCAUAGUGTT against Gnptab,inactive: 1.03
19,GGCUUGAUCCUUAGCUUAATT against Gpld1,inactive: 0.127
